Reference: PubChem BioAssay (EPA / NIEHS)
Several values for one entry are separate records, joined by “and”; a condition that tells them apart may be missing. Equal values may be shown once. Inconclusive means that the source gave no clear call. Such entries were picked first, then a sample of the others. Potencies of inconclusive entries are doubtful fits and often do not repeat. Activity calls are given as the source filed them. How the source made its calls: active means hit-call score of the fitted dose curve at least 0.9, where 1 is the maximum; inconclusive means response in the unintended direction; inactive means score below 0.9.

The chains behind the UniProt entries cited, without tags or fusion partners. Where a name states a change or a piece, a line headed by the entry shows the natural chain unless it says otherwise.
UniProt P04150: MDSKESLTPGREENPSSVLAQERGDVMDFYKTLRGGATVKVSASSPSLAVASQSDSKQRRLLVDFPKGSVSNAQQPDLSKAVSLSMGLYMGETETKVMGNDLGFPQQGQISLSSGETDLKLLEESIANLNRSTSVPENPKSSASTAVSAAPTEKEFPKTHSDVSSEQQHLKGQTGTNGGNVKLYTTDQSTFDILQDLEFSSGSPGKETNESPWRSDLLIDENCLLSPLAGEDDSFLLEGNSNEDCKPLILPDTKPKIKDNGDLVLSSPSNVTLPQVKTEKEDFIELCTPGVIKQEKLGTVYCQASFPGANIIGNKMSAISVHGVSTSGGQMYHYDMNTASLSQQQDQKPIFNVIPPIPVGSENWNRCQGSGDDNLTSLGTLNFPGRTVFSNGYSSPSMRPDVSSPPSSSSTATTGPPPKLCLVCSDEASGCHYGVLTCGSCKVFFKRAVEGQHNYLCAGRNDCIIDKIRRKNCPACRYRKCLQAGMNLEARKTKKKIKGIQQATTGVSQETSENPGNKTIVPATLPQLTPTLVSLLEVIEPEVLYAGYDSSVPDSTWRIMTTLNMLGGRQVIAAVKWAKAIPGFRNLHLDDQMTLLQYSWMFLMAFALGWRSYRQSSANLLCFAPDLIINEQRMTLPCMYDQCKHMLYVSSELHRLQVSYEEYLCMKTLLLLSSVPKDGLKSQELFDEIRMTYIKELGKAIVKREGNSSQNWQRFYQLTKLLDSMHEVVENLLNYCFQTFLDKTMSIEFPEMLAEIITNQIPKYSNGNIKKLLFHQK

target: Glucocorticoid receptor (Homo sapiens) (UniProt P04150); assay: ATG_GR_TRANS: Attagene TRANS-FACTORIAL HepG2 Assay for human Glucocorticoid Receptor (GR) (AID 2282978); details: HepG2 Attagene TRANS GR reporter, mRNA transcription;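 further: activators score as hits since higher reporter transcript over DMSO is fitted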
Procedure, shortened: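 Transient MRTU transfection of HepG2 (GAL4-UAS reporters, exogenous NR-GAL4 chimeras), 24 h dosing. Readout: reporter transcript via RT-PCR + capillary electrophoresis fluorescence. Positive direction vs DMSO baseline.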

| SMILES | AC50 | outcome |
| --- | --- | --- |
| c1ccc2n[nH]nc2c1 | inconclusive: 23.5 µM | – |
| C1CCOC1 | – | inactive |
| O=[N+]([O-])c1ccc(C=Cc2ccc([N+](=O)[O-])cc2S(=O)(=O)O)c(S(=O)(=O)O)c1 | – | inactive |
| C=CC(C)(O)CCC=C(C)C (configuration not stated) | – | inactive |
| CCOC(C=C(C)CCC=C(C)C)OCC | inconclusive: 100 µM | – |
| c1coc(CNc2ncnc3nc[nH]c23)c1 | – | inactive |
| CC(C)(C)C1CCC(O)CC1 (configuration not stated) | inconclusive: 100 µM | – |
| COC(OC)(C(=O)c1ccccc1)c1ccccc1 | – | inactive |
| OCC1CCC(CO)CC1 (configuration not stated) | – | inactive |
| C#CC(O)C(CC)CCCC (configuration not stated) | – | inactive |
| Brc1ccccn1 | inconclusive: 100 µM | – |
| CC(=O)O[C@@H]1C[C@@H]2CC[C@@]1(C)C2(C)C | – | inactive |
| CCOCCO | – | inactive |

One compound at a time, from the list above:
CCOC(C=C(C)CCC=C(C)C)OCC as listed: AC50: inconclusive: 100 µM
Brc1ccccn1 as listed: AC50: inconclusive: 100 µM
